Values quoted from earlier work as cited in patent US5215971A, “Antiviral pharmaceutical composition comprising 5-substituted pyrimidine nucleosides” (priority 1986, dated 1993).
At least one compound was matched to its structure with a doubt left. Some compounds share one wording; it may come from a single statement.

Legend:
HIV [1] = conditions: Oberg; cited from earlier work
HIV [2] = conditions: Oberg; cited from earlier work; remark: listed apart in the source

Nc1ccn([C@H]2CC[C@@H](CO)O2)c(=O)n1 [dideoxycytidine]
inhibition of HIV replication in cell cultures (HIV [1]): inhibit HIV replication in cell cultures | anti-HIV properties in patients (HIV [2]): shown anti-HIV properties in patients
